# In PubChem BioAssay AID493014 (National Center for Advancing Translational Sciences (NCATS), 2011):
# This is one part of the list. The main result of the screen is listed elsewhere. These columns were measured beside it and carry no call. Compounds called inactive in the main read-out are mostly missing here. Words in brackets tell the shape of the fitted curve; partial curves, single points and poor fits give uncertain potencies.
# Experiment: qHTS Assay to Find Inhibitors of Chronic Active B-Cell Receptor Signaling
# Conditions: ABC-DLBCL IkBa-CBG/CBR reporter, luminescence ratio (green luciferase fused to IkBa over red control in TMD8 lymphoma cells), 4 h
# Outline: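 Concentration-response series (up to 46 uM) were applied to TMD8 dual-reporter cells for 4 h at 37C with doxycycline. Green/red ratio, after filter-overlap correction, defined %Activity; red signal alone was normalised to basal cells and zero luminescence.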
# [1] = measured here: CBR red luminescence, cell number
# [2] = measured here: IkBa-CBG green luminescence
Structure (SMILES),AC50 [1],AC50 [2]
O=C(Nc1ccc2c(c1)oc1ccc(S(=O)(=O)N3CCCC3)cc12)C1CC1,"1.84 µM [rising, partial curve, poor fit]",
CCSc1nnc(NC(=O)COc2ccccc2)s1,"18.4 µM [falling, single point]",
CC[C@]12c3[nH]c4ccccc4c3CCN1C(=O)C(CC(=O)NCc1ccc(OC)c(OC)c1)C[C@@H]2C(=O)N1CCN(C(=O)C2CC2)CC1 (stereo not given in full),"16.4 µM [falling, single point]",
COc1ccc(/C=C2\Oc3cc(OCC(=O)N4CC(O)C[C@H]4C(=O)O)ccc3C2=O)cc1OC (stereo not given in full),"10 µM [falling, single point]",
N#Cc1c(N)oc(-c2cccs2)c1-c1cccs1,"13 µM [falling, partial curve, poor fit]",
O=C(COc1cccc2cccnc12)N/N=C/c1ccccc1O,"35.5 µM [falling, single point]",
CCn1nc(C)c(CN2CCc3c([nH]c4ccccc34)C2c2ccc(F)c(OC)c2)c1C (stereo not given),"22.4 µM [falling, single point]",
CN(Cc1ccccc1)S(=O)(=O)c1ccc2c(c1)OCCO2,"20.6 µM [rising, single point]",
COc1cccc(/C=C2\N=C3CCCCCN3C2=O)c1,"29.1 µM [falling, single point]",
COc1cccc(CNC(=O)[C@@H](C)N2C(=O)N3CCc4c([nH]c5ccc(OC)cc45)C3(C)C2=O)c1 (stereo not given in full),"8.91 µM [falling, partial curve, poor fit]",
Cc1ccc(Oc2ccc(NC(=O)C3=CC=CN4CCS(=O)(=O)N=C34)cc2)cc1,"20.6 µM [rising, partial curve, poor fit]",
C[C@@]12C(=O)Nc3ccc(Cl)cc3C(=O)N1[C@H]1c3ccccc3OC[C@@H]1[C@@H]2c1ccccc1,"0.92 µM [falling, full curve]","1.64 µM [rising, full curve, poor fit]"
CC(C)(C)c1ccc(Oc2ccc(NC(=O)c3cccs3)cn2)cc1,"5.01 µM [falling, partial curve, poor fit]",
Cc1cccc(C)c1OC(=O)C(c1ccccc1)c1ccccc1,"10.3 µM [rising, partial curve, poor fit]",
NC(=O)CC1C(=O)N(c2ccc(Cl)cc2)C(=S)N1NC(=O)c1cccc(F)c1 (stereo not given),"1.58 µM [rising, partial curve]",
CCOC(=O)c1cnc2nc(C(F)(F)F)[nH]n2c1=O,"29.1 µM [falling, single point]",
COCCCN(C(=S)NC(=O)C12CC3CC(CC(C3)C1)C2)c1c(N)n(Cc2ccccc2)c(=O)[nH]c1=O,"3.16 µM [rising, partial curve, poor fit]",
CC1(C)CC2CC(C)(CN2C(=O)CCCN2C(=O)c3ccccc3C2=O)C1 (stereo not given),"3.66 µM [rising, full curve, poor fit]",
COc1cc(OC)cc(C(=O)N/N=C/c2ccc(OC)c(COc3ccc4ccccc4c3)c2)c1,"3.55 µM [falling, partial curve, poor fit]",
CCc1cc2c(=O)c(-c3cnn(-c4ccccc4)c3)coc2c(CN2CCOCC2)c1O,"2.82 µM [rising, full curve, poor fit]",
COc1ccccc1-c1noc(CCC(=O)N2CCN(c3cc(C)ccc3C)CC2)n1,"23.1 µM [falling, single point]",

# 4 compounds already listed, arranged by molecular weight, rising.
Structure (SMILES),AC50 [1],AC50 [2]
N#Cc1c(N)oc(-c2cccs2)c1-c1cccs1,"13 µM [falling, partial curve, poor fit]",
O=C(COc1cccc2cccnc12)N/N=C/c1ccccc1O,"35.5 µM [falling, single point]",
CCc1cc2c(=O)c(-c3cnn(-c4ccccc4)c3)coc2c(CN2CCOCC2)c1O,"2.82 µM [rising, full curve, poor fit]",
CC[C@]12c3[nH]c4ccccc4c3CCN1C(=O)C(CC(=O)NCc1ccc(OC)c(OC)c1)C[C@@H]2C(=O)N1CCN(C(=O)C2CC2)CC1 (stereo not given in full),"16.4 µM [falling, single point]",

# Continued:

Structure (SMILES),AC50 [1],AC50 [2]
COc1ccc(S(=O)(=O)N2CCCCCC2)cc1C(=O)NCCc1ccc(F)cc1,"20.6 µM [rising, partial curve, poor fit]",
O=C(Cn1cc2c(n1)CCCCC2)Nc1ccccc1Cl,"14.1 µM [rising, partial curve, poor fit]",
C(=N\NC1=Nc2cccc3cccc1c23)/c1cccnc1,"28.2 µM [falling, single point]",
O=C(COC(=O)c1ccccc1NS(=O)(=O)c1ccc(Cl)cc1)NCc1ccccc1,"29.1 µM [falling, single point]",
CCCCc1c(O)nc(SCC(=O)N2CCCCC2)[nH]c1=O,"0.794 µM [rising, full curve, poor fit]",
CN(Cc1ccon1)Cc1cn(C)nc1-c1cccc(Cl)c1,"35.5 µM [falling, single point]",
COc1ccccc1CC(=O)c1ccc(OCc2ccccc2)cc1,"0.0092 µM [rising, full curve, poor fit]",
Nc1c2c(nc3ccc(Br)cc13)N(C1CCCCC1)CC2,"35.5 µM [falling, single point]",
Cc1ccc2[nH]c3c(N4CCc5ccccc5C4)ncnc3c2c1,"22.4 µM [falling, partial curve, poor fit]",
O=C(N/N=C/c1coc2ccc(Cl)cc2c1=O)c1ccc(O)cc1,"0.282 µM [falling, full curve, poor fit]",
NC(=O)Nc1ccc(F)cc1,"0.731 µM [falling, full curve, poor fit]",
O=C(Nc1ccc(-c2cn3c(n2)SCC3)cc1)c1ccc2ccccc2n1,"1 µM [falling, full curve]",
FC(F)(F)c1cnc(NNC(=S)Nc2ccccc2Cl)c(Cl)c1,"16.4 µM [falling, single point]",
C/C(CC1CC(COCC(C)C)OC1=O)=N\Nc1nc(-c2ccccc2)cs1 (stereo not given),"4.61 µM [falling, partial curve]",
COc1ccc(/C=C(/C#N)c2cccnc2)cc1OC,"20.6 µM [rising, partial curve]","23.1 µM [falling, single point]"
O=C(/C=C/c1cccc([N+](=O)[O-])c1)N(c1ccccn1)c1ccccn1,"3.55 µM [rising, partial curve, poor fit]",
C=CCN1C=C/C(=C\C=C(C#N)C#N)c2ccccc21,"7.31 µM [rising, partial curve]",
Cc1c(C(=O)O)sc2nc(/C=C/c3cccc(F)c3)[nH]c(=O)c12,"0.631 µM [falling, full curve]",
Nc1nc(Cl)c2ncn(C3OC(CO)C(O)C3O)c2n1 (stereo not given),"32.6 µM [rising, partial curve, poor fit]",
CC(C)(C)c1cc(C(=O)CCN2CCOCC2)cc(C(C)(C)C)c1O,"11.2 µM [falling, partial curve, poor fit]",
S=C1NCN(Cc2ccco2)CN1,"4.47 µM [falling, full curve, poor fit]",

Structure (SMILES),AC50 [1],AC50 [2]
Nc1c(NC2CCCCC2)c2ccccc2oc1=O,"20.6 µM [falling, partial curve]",
Oc1c(Br)cc(Br)cc1CNc1cccc2cccnc12,"12.6 µM [falling, partial curve]",
CCCOc1ccc(-c2nnc(N)s2)cc1,"0.461 µM [rising, partial curve, poor fit]",
CC1=C(C(N)=O)C(c2cccc(F)c2)n2nc(SCc3ccccc3)nc2N1 (stereo not given),"3.98 µM [falling, full curve, poor fit]",
COc1ccccc1C(=O)CC(=O)c1ccccc1,"1.12 µM [rising, full curve, poor fit]",
COc1ccccc1NC(=O)NCC(=O)Nc1ccc(F)c(F)c1,"8.2 µM [falling, partial curve, poor fit]",
COC(=O)NNC(=O)C1CCC(C)CC1 (stereo not given),"13 µM [rising, partial curve, poor fit]",
CN(C)N=Nc1nc2c([nH]1)c(=O)n(C)c(=O)n2C,"5.01 µM [falling, full curve]",
CCOc1ccc(CCNc2ncnc3onc(-c4ccc(F)cc4)c23)cc1OCC,"10 µM [falling, partial curve, poor fit]",
CN(C)c1oc(COc2ccccc2F)nc1C#N,"6.51 µM [rising, single point]",
O=C(CN1CCOCC1)N/N=C/c1ccc(-c2cccc(Cl)c2Cl)o1,"3.98 µM [rising, single point]",
CC1CCN(Cc2nnc(-c3cccc(Br)c3)o2)CC1,"7.08 µM [rising, full curve, poor fit]",
COc1ccc(C(=O)Nc2ccc(S(=O)(=O)N3CCCCC3)cc2)cc1,"25.1 µM [falling, single point]",
Cc1ccc(NC(=O)CSc2nn(-c3ccccc3)c(=S)s2)cc1S(=O)(=O)N(C)C,"29.1 µM [falling, partial curve]",
CCOC(=O)c1c(CSc2ccccc2)n(C)c2ccc(O)c(CN3CCN(C)CC3)c12,"11.2 µM [falling, partial curve]",
c1nc(NC2CCCCCC2)c2[nH]cnc2n1,"8.2 µM [falling, partial curve]",
Cc1cccc(NC(=O)c2ccc([N+](=O)[O-])s2)c1C,"20.6 µM [falling, partial curve, poor fit]",
CS(=O)(=O)c1ccc(Cl)c(NC(=O)CN2C(=O)C3CCCCC3C2=O)c1 (stereo not given),"29.1 µM [rising, single point]",
Nc1nc(C23CC4CC(CC(Cl)(C4)C2)C3)cs1,"35.5 µM [rising, single point]",
O=C(Nc1nnc(SCc2c(Cl)cccc2Cl)s1)c1cccc([N+](=O)[O-])c1,"2.24 µM [rising, full curve, poor fit]",
Cc1cccc(C(=O)Nc2ccc(C(=O)N/N=C/c3ccc(C)o3)cc2)c1,"10 µM [falling, partial curve, poor fit]",
